For the experiment, the target named is SUMOylation activating enzyme subunit 1 (SAE1) (Homo sapiens, UniProt Q9UBE0). Description: biochemical.

Chains of the proteins cited; added tags and fusions are not shown. Lines headed by an entry give the natural chain unless they say otherwise; changes in a name come on top.
UniProt Q9UBE0: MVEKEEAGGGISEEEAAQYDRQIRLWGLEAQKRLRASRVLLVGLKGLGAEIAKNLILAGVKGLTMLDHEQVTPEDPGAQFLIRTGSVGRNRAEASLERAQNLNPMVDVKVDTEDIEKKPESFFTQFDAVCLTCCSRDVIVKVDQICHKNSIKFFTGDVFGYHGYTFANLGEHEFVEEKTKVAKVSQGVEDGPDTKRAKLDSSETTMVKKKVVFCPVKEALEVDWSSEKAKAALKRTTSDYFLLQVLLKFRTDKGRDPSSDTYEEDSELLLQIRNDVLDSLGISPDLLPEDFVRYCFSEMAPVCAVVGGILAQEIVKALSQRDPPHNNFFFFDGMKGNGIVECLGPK

Usually Kd stands for the concentration at which binding is half-saturated. A lower Kd goes with higher affinity. Take `CN[C@H]1CCc2cc(OC)c(OC)c(OC)c2-c2ccc(OC)c(=O)cc21` [colcemid]: the affinity, expressed as Kd, was 70.5 µM.

The values are drawn from article PMC12137981 (Acta Pharmaceutica Sinica. B, 2025).
